# Source: the supplement of paper PMC10849652
# The chains behind the UniProt entries cited, without tags or fusion partners. Where a name states a change or a piece, a line headed by the entry shows the natural chain unless it says otherwise.
# UniProt P49642: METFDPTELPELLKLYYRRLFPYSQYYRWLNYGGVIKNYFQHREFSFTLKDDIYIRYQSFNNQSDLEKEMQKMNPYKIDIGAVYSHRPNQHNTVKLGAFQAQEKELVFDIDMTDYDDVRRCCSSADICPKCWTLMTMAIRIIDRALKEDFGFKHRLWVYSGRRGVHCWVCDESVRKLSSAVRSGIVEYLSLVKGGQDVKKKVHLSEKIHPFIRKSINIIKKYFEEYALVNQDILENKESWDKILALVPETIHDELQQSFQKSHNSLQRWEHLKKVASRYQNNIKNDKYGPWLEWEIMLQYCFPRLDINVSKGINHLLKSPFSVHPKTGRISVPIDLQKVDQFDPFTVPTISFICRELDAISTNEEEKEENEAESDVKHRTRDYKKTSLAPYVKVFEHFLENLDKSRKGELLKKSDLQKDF
# UniProt P50897: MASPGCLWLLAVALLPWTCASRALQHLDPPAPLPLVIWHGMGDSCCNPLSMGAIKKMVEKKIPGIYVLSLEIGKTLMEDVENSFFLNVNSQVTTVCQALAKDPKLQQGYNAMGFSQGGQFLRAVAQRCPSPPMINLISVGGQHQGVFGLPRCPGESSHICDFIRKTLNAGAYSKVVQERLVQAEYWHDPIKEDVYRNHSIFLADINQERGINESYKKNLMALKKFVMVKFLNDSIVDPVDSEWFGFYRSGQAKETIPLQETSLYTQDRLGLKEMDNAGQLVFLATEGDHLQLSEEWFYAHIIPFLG
# UniProt Q14738, whole entry, looked up: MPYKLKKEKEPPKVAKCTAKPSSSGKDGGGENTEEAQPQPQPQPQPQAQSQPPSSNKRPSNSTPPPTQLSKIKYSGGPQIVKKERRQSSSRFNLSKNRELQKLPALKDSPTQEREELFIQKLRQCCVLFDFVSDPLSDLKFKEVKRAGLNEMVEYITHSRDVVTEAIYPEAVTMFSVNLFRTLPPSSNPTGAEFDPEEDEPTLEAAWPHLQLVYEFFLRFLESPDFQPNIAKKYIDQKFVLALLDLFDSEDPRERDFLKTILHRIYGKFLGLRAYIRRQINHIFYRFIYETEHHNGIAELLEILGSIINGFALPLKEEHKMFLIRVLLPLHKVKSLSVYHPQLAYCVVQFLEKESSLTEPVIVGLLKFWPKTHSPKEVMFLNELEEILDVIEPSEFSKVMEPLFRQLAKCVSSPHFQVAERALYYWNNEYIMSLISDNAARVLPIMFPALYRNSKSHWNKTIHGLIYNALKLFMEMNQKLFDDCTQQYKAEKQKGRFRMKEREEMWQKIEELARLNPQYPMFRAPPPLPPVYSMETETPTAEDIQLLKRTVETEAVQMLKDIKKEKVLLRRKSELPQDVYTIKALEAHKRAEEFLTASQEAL
# UniProt P30405: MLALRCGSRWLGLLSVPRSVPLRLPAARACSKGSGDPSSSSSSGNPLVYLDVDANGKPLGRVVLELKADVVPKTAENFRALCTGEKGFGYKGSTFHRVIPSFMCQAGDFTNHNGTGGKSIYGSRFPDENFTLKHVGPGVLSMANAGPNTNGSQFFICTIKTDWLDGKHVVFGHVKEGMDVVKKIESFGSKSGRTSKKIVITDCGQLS
# UniProt P60510: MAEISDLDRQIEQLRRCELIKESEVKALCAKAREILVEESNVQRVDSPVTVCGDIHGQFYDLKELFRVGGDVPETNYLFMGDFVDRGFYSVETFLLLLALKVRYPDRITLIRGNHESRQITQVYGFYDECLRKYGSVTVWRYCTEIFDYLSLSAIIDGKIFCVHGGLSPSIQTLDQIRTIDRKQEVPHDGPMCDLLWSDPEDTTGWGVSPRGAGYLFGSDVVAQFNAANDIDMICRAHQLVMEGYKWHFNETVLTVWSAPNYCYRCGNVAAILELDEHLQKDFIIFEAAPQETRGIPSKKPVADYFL
# UniProt P54619: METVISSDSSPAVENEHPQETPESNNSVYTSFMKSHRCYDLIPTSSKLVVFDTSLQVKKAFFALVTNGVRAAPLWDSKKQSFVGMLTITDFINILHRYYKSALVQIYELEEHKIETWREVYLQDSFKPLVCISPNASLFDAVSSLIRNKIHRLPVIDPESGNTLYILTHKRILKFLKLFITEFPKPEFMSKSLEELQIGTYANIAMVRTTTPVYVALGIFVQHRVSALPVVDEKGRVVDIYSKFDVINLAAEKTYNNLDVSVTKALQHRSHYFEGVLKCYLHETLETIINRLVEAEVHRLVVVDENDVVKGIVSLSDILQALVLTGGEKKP
# UniProt K7ELL7: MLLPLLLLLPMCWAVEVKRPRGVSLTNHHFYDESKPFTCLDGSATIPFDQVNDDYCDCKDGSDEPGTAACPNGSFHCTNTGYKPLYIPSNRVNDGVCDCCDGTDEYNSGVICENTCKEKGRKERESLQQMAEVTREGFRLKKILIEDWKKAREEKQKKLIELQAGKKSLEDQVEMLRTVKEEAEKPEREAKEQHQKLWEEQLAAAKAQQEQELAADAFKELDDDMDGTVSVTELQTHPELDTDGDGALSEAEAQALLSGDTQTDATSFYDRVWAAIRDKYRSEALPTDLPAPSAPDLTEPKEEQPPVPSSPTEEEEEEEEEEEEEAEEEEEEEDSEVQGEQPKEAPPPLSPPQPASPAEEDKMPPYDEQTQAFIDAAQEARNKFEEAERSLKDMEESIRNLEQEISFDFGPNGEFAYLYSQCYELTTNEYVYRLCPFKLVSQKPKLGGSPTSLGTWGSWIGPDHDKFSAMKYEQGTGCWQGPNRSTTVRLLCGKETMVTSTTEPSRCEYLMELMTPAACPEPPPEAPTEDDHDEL
# UniProt P36873, whole entry, looked up: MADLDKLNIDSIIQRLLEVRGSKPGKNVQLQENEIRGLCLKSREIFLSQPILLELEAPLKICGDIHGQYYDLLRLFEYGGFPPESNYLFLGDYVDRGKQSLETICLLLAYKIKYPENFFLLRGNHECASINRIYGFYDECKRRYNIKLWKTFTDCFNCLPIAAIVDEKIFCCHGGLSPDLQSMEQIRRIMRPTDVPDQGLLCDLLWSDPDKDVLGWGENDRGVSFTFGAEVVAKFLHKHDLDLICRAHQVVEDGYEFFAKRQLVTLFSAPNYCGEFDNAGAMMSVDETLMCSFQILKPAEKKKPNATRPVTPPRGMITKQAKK
# UniProt P48454, whole entry, looked up: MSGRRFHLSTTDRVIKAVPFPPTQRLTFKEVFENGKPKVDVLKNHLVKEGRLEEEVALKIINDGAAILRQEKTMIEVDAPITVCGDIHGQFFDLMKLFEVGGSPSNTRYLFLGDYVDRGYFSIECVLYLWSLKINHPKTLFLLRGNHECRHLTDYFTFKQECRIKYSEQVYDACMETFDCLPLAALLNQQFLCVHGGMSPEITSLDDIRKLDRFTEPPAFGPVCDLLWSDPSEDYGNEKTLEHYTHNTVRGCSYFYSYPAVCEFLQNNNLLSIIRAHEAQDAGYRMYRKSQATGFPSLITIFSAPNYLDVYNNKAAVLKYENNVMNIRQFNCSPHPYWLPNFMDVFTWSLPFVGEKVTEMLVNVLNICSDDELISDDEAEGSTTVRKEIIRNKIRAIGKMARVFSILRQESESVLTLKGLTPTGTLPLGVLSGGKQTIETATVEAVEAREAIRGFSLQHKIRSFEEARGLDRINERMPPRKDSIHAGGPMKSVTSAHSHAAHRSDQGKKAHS
# UniProt O43741: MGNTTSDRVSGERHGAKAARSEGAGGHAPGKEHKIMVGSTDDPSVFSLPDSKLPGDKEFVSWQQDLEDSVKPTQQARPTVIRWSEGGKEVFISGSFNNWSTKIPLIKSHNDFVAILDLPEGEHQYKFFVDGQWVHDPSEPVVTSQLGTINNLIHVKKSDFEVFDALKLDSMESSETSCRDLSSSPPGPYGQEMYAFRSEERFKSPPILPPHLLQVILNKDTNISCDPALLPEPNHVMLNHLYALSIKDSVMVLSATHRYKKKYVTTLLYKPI
# UniProt Q96QC0: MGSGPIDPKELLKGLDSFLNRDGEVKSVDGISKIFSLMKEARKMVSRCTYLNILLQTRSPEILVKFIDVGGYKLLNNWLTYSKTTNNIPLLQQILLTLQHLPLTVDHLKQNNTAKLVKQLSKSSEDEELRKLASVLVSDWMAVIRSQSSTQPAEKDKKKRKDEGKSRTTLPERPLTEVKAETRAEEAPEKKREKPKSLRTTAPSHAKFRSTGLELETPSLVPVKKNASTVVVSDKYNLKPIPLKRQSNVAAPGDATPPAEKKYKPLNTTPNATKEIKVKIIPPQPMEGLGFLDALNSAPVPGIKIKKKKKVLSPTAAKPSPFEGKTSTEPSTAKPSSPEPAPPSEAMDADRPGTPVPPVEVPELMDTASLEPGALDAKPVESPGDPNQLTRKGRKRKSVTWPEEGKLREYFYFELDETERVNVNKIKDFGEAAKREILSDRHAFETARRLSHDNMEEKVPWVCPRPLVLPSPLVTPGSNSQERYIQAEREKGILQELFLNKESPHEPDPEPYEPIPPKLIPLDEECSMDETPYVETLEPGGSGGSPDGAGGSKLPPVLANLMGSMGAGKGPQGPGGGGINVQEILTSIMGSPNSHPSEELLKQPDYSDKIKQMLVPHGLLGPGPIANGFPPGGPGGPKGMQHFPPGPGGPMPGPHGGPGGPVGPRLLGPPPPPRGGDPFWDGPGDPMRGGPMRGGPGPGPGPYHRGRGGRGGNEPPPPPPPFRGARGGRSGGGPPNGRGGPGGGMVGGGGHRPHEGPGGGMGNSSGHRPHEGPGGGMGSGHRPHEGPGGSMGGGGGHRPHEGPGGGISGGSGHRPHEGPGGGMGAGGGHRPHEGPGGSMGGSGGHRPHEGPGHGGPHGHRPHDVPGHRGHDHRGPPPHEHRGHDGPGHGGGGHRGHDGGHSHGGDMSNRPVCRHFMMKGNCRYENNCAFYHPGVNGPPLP
# UniProt P48147: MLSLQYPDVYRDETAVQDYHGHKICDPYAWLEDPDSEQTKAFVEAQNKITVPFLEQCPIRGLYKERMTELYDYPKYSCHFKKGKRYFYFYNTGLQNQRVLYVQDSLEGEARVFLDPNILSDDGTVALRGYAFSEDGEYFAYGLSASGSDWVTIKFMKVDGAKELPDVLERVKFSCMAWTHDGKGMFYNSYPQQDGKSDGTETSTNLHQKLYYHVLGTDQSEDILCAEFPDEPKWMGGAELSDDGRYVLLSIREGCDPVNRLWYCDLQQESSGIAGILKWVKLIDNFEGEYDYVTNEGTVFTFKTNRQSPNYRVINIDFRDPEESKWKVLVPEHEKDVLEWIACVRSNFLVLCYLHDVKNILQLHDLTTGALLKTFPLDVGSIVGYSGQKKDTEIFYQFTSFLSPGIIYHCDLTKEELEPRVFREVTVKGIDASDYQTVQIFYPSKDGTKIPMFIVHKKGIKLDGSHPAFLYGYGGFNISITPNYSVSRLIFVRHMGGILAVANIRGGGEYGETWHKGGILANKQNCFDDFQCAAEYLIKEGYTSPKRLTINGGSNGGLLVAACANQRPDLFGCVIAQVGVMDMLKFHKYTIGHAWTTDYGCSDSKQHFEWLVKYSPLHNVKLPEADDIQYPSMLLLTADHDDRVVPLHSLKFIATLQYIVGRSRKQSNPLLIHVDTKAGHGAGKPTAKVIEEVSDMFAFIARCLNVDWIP
# UniProt Q06830: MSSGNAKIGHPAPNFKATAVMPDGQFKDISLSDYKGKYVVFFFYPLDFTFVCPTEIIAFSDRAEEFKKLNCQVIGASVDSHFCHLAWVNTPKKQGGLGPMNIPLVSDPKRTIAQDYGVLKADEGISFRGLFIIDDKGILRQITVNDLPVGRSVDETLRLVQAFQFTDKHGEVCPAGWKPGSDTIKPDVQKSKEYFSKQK
# UniProt Q6NUP7: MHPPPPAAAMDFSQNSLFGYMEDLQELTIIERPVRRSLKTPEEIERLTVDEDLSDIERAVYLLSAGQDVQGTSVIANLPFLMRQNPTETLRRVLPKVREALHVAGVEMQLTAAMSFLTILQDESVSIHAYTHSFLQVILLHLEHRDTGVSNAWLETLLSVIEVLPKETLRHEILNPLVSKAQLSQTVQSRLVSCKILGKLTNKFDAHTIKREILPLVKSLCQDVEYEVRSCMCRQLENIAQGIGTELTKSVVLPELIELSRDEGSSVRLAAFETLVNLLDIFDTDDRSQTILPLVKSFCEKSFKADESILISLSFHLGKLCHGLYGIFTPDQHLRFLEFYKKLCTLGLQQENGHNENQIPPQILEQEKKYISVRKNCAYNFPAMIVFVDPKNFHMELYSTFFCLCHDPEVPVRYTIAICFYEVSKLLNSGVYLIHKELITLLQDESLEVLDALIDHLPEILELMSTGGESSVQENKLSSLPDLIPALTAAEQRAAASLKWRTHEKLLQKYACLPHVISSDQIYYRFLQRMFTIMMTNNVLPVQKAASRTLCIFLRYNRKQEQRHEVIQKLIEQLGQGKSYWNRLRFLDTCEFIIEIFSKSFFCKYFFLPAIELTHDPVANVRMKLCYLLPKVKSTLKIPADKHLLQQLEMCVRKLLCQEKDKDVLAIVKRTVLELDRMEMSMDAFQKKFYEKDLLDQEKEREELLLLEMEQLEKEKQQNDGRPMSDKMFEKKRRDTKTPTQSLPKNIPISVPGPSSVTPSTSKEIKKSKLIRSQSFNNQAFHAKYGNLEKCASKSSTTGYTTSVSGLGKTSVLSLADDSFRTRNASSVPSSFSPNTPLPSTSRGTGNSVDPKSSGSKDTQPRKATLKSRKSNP
# This is one part of the list.
# Columns and labels:
# Experiment in all cases: log2 fold change, soluble protein after heating vs DMSO (PISA); higher = thermal stabilisation; K562 lysate, 10 uM; active = over 0.2 and 3.5 SD of the protein, either way, in both replicates (recomputed)
# ibrutinib = compound: C=CC(=O)N1CCC[C@@H](n2nc(-c3ccc(Oc4ccccc4)cc3)c3c(N)ncnc32)C1 [ibrutinib]
# How it was run: (§1)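 Quantification was by TMTpro 16plex LC-MS/MS with equalised channel sums, applied to the supernatant after 21,000xg for 90 min. Samples were crude K562 extract at 1 mg/mL protein in PBS pH 7.4 with 1 mM MgCl2, treated with 10 μM compound for 30 min, heated for 3 min across 48°C-58°C, pooled and brought to 0.5% NP-40 at 4°C. Values are log-two fold changes in thermal stability relative to solvent controls, from duplicates.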
# [1] = compound: CC(=O)c1cnc2ccc(-c3cc(Cl)c(O)c(Cl)c3)nc2c1N[C@H]1CC[C@H](CN(C)C)CC1
# How it was run: as §1
# ralimetinib = compound: CC(C)(C)Cn1c(N)nc2ccc(-c3[nH]c(C(C)(C)C)nc3-c3ccc(F)cc3)nc21 [ralimetinib]
# How it was run: as §1
# [2] = compound: CC(C)(O)CC(=O)NCCn1ccc2ncnc(Nc3ccc(Oc4cccc(C(F)(F)F)c4)c(Cl)c3)c21
# How it was run: as §1
# [3] = compound: CC(C)C1=C2N=C(C=C(N2N=C1)NCC3=CC=CC=C3)NCCCCCCN
# How it was run: as §1
# [4] = compound: CC1=C(C(CC(=O)N1)C2=CC=C(C=C2)C(F)(F)F)C(=O)NC3=C(C=C4C(=C3)C=NN4)F
# How it was run: as §1
# [5] = compound: CC1=C(C2=C(C=C1)C(=O)C3=CC=CC=C3N2CCCN)C
# How it was run: as §1
# [6] = compound: CC1=C(C=C(C=C1)NC(=O)C2=CC(=CC=C2)C(C)(C)C#N)NC3=CC4=C(C=C3)N=CN(C4=O)C
# How it was run: as §1
# [7] = compound: CC1=C(C=C(C=C1)NC(=O)C2=CC(=CC=C2)N(C)C)NC(=O)C3=CC=C(C=C3)O
# How it was run: as §1
# [8] = compound: CC1=CC=C(C=C1)SC2=C3C=C(SC3=CN=C2)C(=O)N
# How it was run: as §1
Target,log2 fold change (ibrutinib),log2 fold change [1],log2 fold change (ralimetinib),log2 fold change [2],log2 fold change [3],log2 fold change [4],log2 fold change [5],log2 fold change [6],log2 fold change [7],log2 fold change [8]
PRKACB isoform 2 (UniProt P22694),inactive: -0.006,active: 0.693,inactive: 0.033,inactive: -0.03,inactive: -0.013,inactive: 0.025,inactive: -0.014,inactive: -0.037,inactive: 0.014,inactive: -0.024
PPP1R14A (UniProt Q96A00),inactive: 0.095,inactive: 0.001,inactive: -0.015,inactive: 0.021,inactive: 0.002,inactive: -0.02,inactive: -0.003,inactive: 0.05,inactive: -0.004,inactive: -0.011
PRADC1 (UniProt Q9BSG0),inactive: 0.026,inactive: -0.395,inactive: -0.023,inactive: 0.041,inactive: -0.125,inactive: 0.026,inactive: -0.009,inactive: 0.072,inactive: 0.008,inactive: -0.023
PRPF4 (UniProt O43172),inactive: -0.016,inactive: -0.019,inactive: -0.016,inactive: -0.014,inactive: -0.012,inactive: -0.009,inactive: -0.027,inactive: 0.028,inactive: 0.004,inactive: 0.004
PRDX6 (UniProt P30041),inactive: 0.025,inactive: 0.025,inactive: -0.015,inactive: -0.001,inactive: -0.009,inactive: -0.02,inactive: -0.006,inactive: 0,inactive: -0.006,inactive: 0.008
PPP1CA (UniProt P62136),inactive: 0,inactive: 0.008,inactive: 0.016,inactive: -0.019,inactive: -0.028,inactive: -0.018,inactive: 0.016,inactive: 0.024,inactive: -0.011,inactive: 0.013
PRC1 (UniProt O43663),inactive: -0.007,inactive: 0.009,inactive: -0.016,inactive: 0.01,inactive: 0.01,inactive: 0.039,inactive: -0.006,inactive: 0.025,inactive: 0.021,inactive: 0.059
PRIM1 (UniProt P49642),inactive: -0.016,inactive: 0.014,inactive: 0.056,inactive: 0.056,inactive: 0.016,inactive: 0.027,inactive: -0.019,inactive: 0.015,inactive: 0.011,inactive: 0.02
PPT1 (UniProt P50897),inactive: -0.039,inactive: -0.009,inactive: 0,inactive: 0.024,inactive: 0.004,inactive: 0.017,inactive: -0.021,inactive: -0.001,inactive: -0.013,inactive: -0.01
PPP2R5D (UniProt Q14738),inactive: -0.04,inactive: 0.016,inactive: 0.022,inactive: 0.003,inactive: 0.01,inactive: 0.009,inactive: 0.006,inactive: -0.044,inactive: 0.021,inactive: 0.018
PPIF (UniProt P30405),inactive: 0.032,inactive: -0.03,inactive: 0.002,inactive: -0.029,inactive: 0.004,inactive: -0.033,inactive: 0.005,inactive: 0.016,inactive: -0.009,inactive: -0.017
PPP4C (UniProt P60510),inactive: 0.062,inactive: -0.01,inactive: 0.018,inactive: -0.044,inactive: -0.008,inactive: -0.032,inactive: -0.038,inactive: 0.016,inactive: 0.02,inactive: -0.031
PRKCSH isoform 2 (UniProt P14314),inactive: -0.125,inactive: 0.069,inactive: 0.012,inactive: -0.142,inactive: -0.004,inactive: 0.04,inactive: -0.017,inactive: 0.131,inactive: 0.132,inactive: -0.045
PRKAG1 (UniProt P54619),inactive: 0.037,inactive: 0.036,inactive: -0.016,inactive: -0.025,inactive: -0.045,inactive: -0.025,inactive: -0.01,inactive: 0.002,inactive: -0.006,inactive: -0.006
PRKCSH (UniProt K7ELL7),inactive: -0.05,inactive: 0.018,inactive: 0.049,inactive: -0.051,inactive: 0.049,inactive: 0.006,inactive: -0.017,inactive: -0.019,inactive: 0.005,inactive: -0.052
PPP1CC isoform 2 (UniProt P36873),inactive: 0.021,inactive: 0.005,inactive: 0.018,inactive: 0.005,inactive: -0.035,inactive: -0.001,inactive: -0.034,inactive: -0.013,inactive: -0.001,inactive: 0.002
PPIG (UniProt Q13427),inactive: -0.045,inactive: -0.022,inactive: 0.036,inactive: 0.06,inactive: 0.009,inactive: 0.055,inactive: -0.051,inactive: 0.05,inactive: 0.056,inactive: 0.013
PPP6R1 (UniProt Q9UPN7),inactive: 0.018,inactive: 0.008,inactive: 0.029,inactive: -0.023,inactive: -0.02,inactive: -0.005,inactive: -0.022,inactive: 0.067,inactive: 0.021,inactive: 0.016
PPP3CC (UniProt P48454),inactive: 0.019,inactive: 0.002,inactive: 0.04,inactive: -0.056,inactive: 0.008,inactive: -0.067,inactive: 0.015,inactive: 0.051,inactive: -0.021,inactive: 0.022
PRKAB2 (UniProt O43741),inactive: -0.041,inactive: -0.018,inactive: 0.093,inactive: -0.129,inactive: -0.025,inactive: 0.086,inactive: -0.066,inactive: -0.082,inactive: 0.035,inactive: -0.008
PPP2CA (UniProt P67775),inactive: 0.042,inactive: 0.009,inactive: 0.007,inactive: 0.083,inactive: -0.012,inactive: -0.017,inactive: -0.034,inactive: -0.047,inactive: -0.003,inactive: 0.036
PROS1 (UniProt P07225),inactive: -0.014,inactive: -0.034,inactive: 0.052,inactive: 0.014,inactive: 0.007,inactive: 0.013,inactive: -0.003,inactive: 0.001,inactive: -0.023,inactive: -0.004
PPP1R14B (UniProt Q96C90),inactive: 0.047,inactive: 0.033,inactive: 0.059,inactive: -0.058,inactive: -0.008,inactive: 0.136,inactive: 0.022,inactive: 0.028,inactive: -0.05,inactive: -0.008
PPP6R2 isoform 5 (UniProt O75170),inactive: 0.028,inactive: 0.026,inactive: 0.07,inactive: -0.027,inactive: -0.022,inactive: 0.019,inactive: 0.032,inactive: 0.017,inactive: 0.007,inactive: 0.013
PPP1R10 (UniProt Q96QC0),inactive: 0.012,inactive: 0.031,inactive: 0.02,inactive: -0.032,inactive: 0.018,inactive: 0.044,inactive: -0.009,inactive: 0.021,inactive: 0.001,inactive: 0.029
PREP (UniProt P48147),inactive: 0.019,inactive: 0,inactive: 0.015,inactive: 0.004,inactive: -0.008,inactive: 0.011,inactive: -0.009,inactive: -0.006,inactive: 0.006,inactive: 0.011
PRDX1 (UniProt Q06830),inactive: 0.021,inactive: -0.006,inactive: 0.001,inactive: -0.02,inactive: 0.031,inactive: -0.009,inactive: 0,inactive: -0.024,inactive: 0.009,inactive: -0.02
PRKCD (UniProt Q05655),inactive: 0.021,inactive: 0.162,inactive: 0.01,inactive: -0.005,inactive: 0.006,inactive: 0.027,inactive: -0.012,inactive: -0.004,inactive: 0.038,inactive: 0.04
PPP4R4 (UniProt Q6NUP7),inactive: 0,inactive: -0.266,inactive: -0.143,inactive: -0.405,inactive: 0.047,inactive: -0.048,inactive: -0.292,inactive: 0.377,inactive: 0.137,inactive: -0.206
PPP2R5C isoform 4 (UniProt Q13362),inactive: 0.023,inactive: -0.011,inactive: -0.089,inactive: -0.05,inactive: -0.032,inactive: -0.003,inactive: 0.095,inactive: 0.05,inactive: 0.012,inactive: 0.001

# Quoted from the entries so far for reference:
Target,log2 fold change (ibrutinib),log2 fold change [1],log2 fold change (ralimetinib),log2 fold change [2],log2 fold change [3],log2 fold change [4],log2 fold change [5],log2 fold change [6],log2 fold change [7],log2 fold change [8]
PRPF4 (UniProt O43172),inactive: -0.016,inactive: -0.019,inactive: -0.016,inactive: -0.014,inactive: -0.012,inactive: -0.009,inactive: -0.027,inactive: 0.028,inactive: 0.004,inactive: 0.004
PRDX6 (UniProt P30041),inactive: 0.025,inactive: 0.025,inactive: -0.015,inactive: -0.001,inactive: -0.009,inactive: -0.02,inactive: -0.006,inactive: 0,inactive: -0.006,inactive: 0.008
PPP1CA (UniProt P62136),inactive: 0,inactive: 0.008,inactive: 0.016,inactive: -0.019,inactive: -0.028,inactive: -0.018,inactive: 0.016,inactive: 0.024,inactive: -0.011,inactive: 0.013
PRC1 (UniProt O43663),inactive: -0.007,inactive: 0.009,inactive: -0.016,inactive: 0.01,inactive: 0.01,inactive: 0.039,inactive: -0.006,inactive: 0.025,inactive: 0.021,inactive: 0.059
PRIM1 (UniProt P49642),inactive: -0.016,inactive: 0.014,inactive: 0.056,inactive: 0.056,inactive: 0.016,inactive: 0.027,inactive: -0.019,inactive: 0.015,inactive: 0.011,inactive: 0.02
PPT1 (UniProt P50897),inactive: -0.039,inactive: -0.009,inactive: 0,inactive: 0.024,inactive: 0.004,inactive: 0.017,inactive: -0.021,inactive: -0.001,inactive: -0.013,inactive: -0.01
